Test results taken from PubChem BioAssay AID1671190 (National Center for Advancing Translational Sciences (NCATS), 2021).
About 6,100 (1.1%) of roughly 580,000 compounds were called active. Inconclusive results, whose numbers are uncertain, are shown with a selection of clear calls. Calls come from the whole dose curve; as a rule, active = well fitted inhibition curve with a large enough effect; inconclusive = small, poorly fitted or top-dose-only effect, or another doubt; inactive = no such curve, though single readings can be large or run the other way. Where the call is inconclusive, the potency comes from a doubtful curve fit.

The chains behind the UniProt entries cited, without tags or fusion partners. Where a name states a change or a piece, a line headed by the entry shows the natural chain unless it says otherwise.
UniProt P18054: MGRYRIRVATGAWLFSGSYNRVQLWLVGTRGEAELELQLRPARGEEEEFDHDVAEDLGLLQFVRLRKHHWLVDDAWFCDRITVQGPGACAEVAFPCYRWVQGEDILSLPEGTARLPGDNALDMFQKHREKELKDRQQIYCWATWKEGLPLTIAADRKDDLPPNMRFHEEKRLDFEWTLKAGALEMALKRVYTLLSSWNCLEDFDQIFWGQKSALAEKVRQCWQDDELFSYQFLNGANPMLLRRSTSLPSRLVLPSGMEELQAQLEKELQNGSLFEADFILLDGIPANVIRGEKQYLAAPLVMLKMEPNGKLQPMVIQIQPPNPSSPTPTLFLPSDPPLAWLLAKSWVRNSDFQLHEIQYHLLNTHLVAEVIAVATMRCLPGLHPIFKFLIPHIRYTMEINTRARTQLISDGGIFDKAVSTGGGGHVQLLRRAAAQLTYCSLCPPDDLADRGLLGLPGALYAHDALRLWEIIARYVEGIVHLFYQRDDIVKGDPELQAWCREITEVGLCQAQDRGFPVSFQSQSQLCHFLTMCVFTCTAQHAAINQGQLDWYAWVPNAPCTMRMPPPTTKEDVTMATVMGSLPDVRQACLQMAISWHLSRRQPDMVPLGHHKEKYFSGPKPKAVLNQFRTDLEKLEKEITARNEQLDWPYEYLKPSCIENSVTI

target: Polyunsaturated fatty acid lipoxygenase ALOX12 (Homo sapiens) (UniProt P18054); experiment: Primary qHTS assay for inhibitors of human arachidonate 12S-lipoxygenase (ALOX12): Round 2; settings: purified 12hLO, xylenol orange hydroperoxide absorbance; activity change, negative = inhibition: at 108 µM (top of the series) unless noted
Outline: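 Purified human 12hLO (150 nM final) in 25 mM Hepes, 0.01% Triton X-100, pH 7.0 was preincubated 15 min at room temperature with compound. Then 40 uM arachidonic acid was added, 30 min. Hydroperoxide was read by Fe-XO absorbance ratio 573/405 nm.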
% is set by controls: 0 for no effect and ±100 for the full control effect; potency is the fitted concentration of half-maximal effect.

| Structure (SMILES) | activity change, negative = inhibition | Potency |
| --- | --- | --- |
| CSc1ccc(/C=C2\C(=N)N3N=C(CC(=O)N4CCOCC4)SC3=NC2=O)cc1 | inactive: -23.6% |  |
| COc1ccc(CNC(=O)c2ccc3nc(C(C)C)oc3c2)cc1OC |  | inconclusive: 44.7 µM [inhibitor, partial curve, poor fit] |
| O=C(c1ccccc1F)N1CCC2(CC1)CN(Cc1ccccc1)CC2CO (stereo unspecified) | inactive: 1.85% |  |
| Cc1ccc(NC(=O)CN2C(=O)COc3ccc(S(=O)(=O)Nc4ccccc4)cc32)c(C)c1 |  | inconclusive: 126 µM [inhibitor, partial curve, poor fit] |
| CC(C)(C)NC(=O)N1CCC2(CC1)C(=O)N(CC(=O)NCCc1ccccc1)CN2c1ccccc1 | inactive: -3.82% |  |
| Cc1sc(NC(=O)c2ccco2)c(C(c2cccnc2)N2CCN(CCO)CC2)c1C (stereo unspecified) | inactive: 4.71% |  |
| CCCCN(Cc1ccccc1)c1ccc(NS(=O)(=O)c2ccccc2C)cc1C(=O)O |  | inconclusive: 31.6 µM [inhibitor, single point] |
| O=C(/C=C/c1cn(-c2ccccc2)nc1-c1ccc2c(c1)OCCO2)NCCCN1CCOCC1 |  | inconclusive: 79.4 µM [inhibitor, partial curve, poor fit] |
| Cn1cnc2c1c(=O)n(CCCN1CCC(C(N)=O)CC1)c(=O)n2C | inactive: 2.38% |  |
| CC1CCc2sc(-c3n[nH]c(=S)o3)cc2C1 (stereo unspecified) |  | inconclusive: 25.1 µM [inhibitor, partial curve, poor fit] |
| Cc1csc(-c2cnn(-c3ccccc3)c2NC(=O)c2ccccc2)n1 |  | inconclusive: 50.1 µM [inhibitor, partial curve] |
| CCC1CCc2sc(C(=O)NCc3cccs3)cc2C1 (stereo unspecified) |  | inconclusive: 12.6 µM [inhibitor, partial curve] |
| COc1cc(CCN(C(C)=O)C2C(=O)Nc3ccccc3N=C2c2ccc3c(c2)OCO3)cc(OC)c1 (stereo unspecified) |  | active: 2 µM |
| O=C(CC1CC2CCC1C2)NCc1ccccn1 (stereo unspecified) | inactive: 7.06% |  |
| O=CN1CCN(C(C(=O)O)c2c[nH]c3cc(NC(=O)c4ccccc4)ccc23)CC1 (stereo unspecified) | inactive: -12.4% |  |
| COc1ccc(/C=N/Nc2cc(C)nc3c(C)cccc23)cc1 |  | inconclusive: 63.1 µM [inhibitor, partial curve, poor fit] |
| COc1ccc(CCNC(=S)N(C)C)cc1OC |  | inconclusive: 126 µM [inhibitor, single point] |
| CNC(C)c1cccc(C(F)(F)F)c1 (stereo unspecified) | inactive: -7.39% [at 12.5 µM] |  |
| CC(=O)c1c(C)[nH]c(C(=O)c2oc3ccc(Br)cc3c2C)c1C | inactive: -5.62% |  |
| Cc1ccc(S(=O)(=O)N2CCC(=O)N([C@H](COCc3ccccc3)Cc3ccccc3)CC2)cc1 |  | inconclusive: 50.1 µM [inhibitor, partial curve, poor fit] |
| CC1Cc2ccccc2N1C(=O)NC1CC(=O)N(c2ccc3c(c2)OCCO3)C1 (stereo unspecified) |  | inconclusive: 126 µM [inhibitor, single point] |
| O=C(N/N=C/c1ccoc1)c1cc(Br)ccc1O |  | inconclusive: 15.8 µM [inhibitor, partial curve, poor fit] |

Some of the entries so far, comma-delimited.
Structure (SMILES),"activity change, negative = inhibition",Potency
Cc1sc(NC(=O)c2ccco2)c(C(c2cccnc2)N2CCN(CCO)CC2)c1C (stereo unspecified),inactive: 4.71%,
Cn1cnc2c1c(=O)n(CCCN1CCC(C(N)=O)CC1)c(=O)n2C,inactive: 2.38%,
COc1ccc(/C=N/Nc2cc(C)nc3c(C)cccc23)cc1,,"inconclusive: 63.1 µM [inhibitor, partial curve, poor fit]"

Continued.

| Structure (SMILES) | activity change, negative = inhibition | Potency |
| --- | --- | --- |
| COC(=O)c1ccc(COC(=O)c2ccc3c(c2)NC(=O)CS3)cc1 |  | inconclusive: 44.7 µM [inhibitor, partial curve, poor fit] |
| O=C(CN1C(=O)CCSc2ccccc21)Nc1ccccc1 | inactive: 6.11% |  |
| FC(F)(F)c1ccc(Cl)c(N/N=C/c2ccc(Cl)cc2)c1 |  | inconclusive: 50.1 µM [inhibitor, partial curve, poor fit] |
| CC(SC1CCCCC1)C(=O)Nc1cccc(C#N)c1 (stereo unspecified) |  | inconclusive: 224 µM [inhibitor, partial curve, poor fit] |
| CC(=O)N1N=C(c2ccc(Br)cc2)CC1c1ccc(Br)cc1 (stereo unspecified) |  | inconclusive: 100 µM [inhibitor, single point] |
| Cc1ccccc1N=Cc1c(O)n(-c2nccs2)c(=O)c2ccccc12 | inactive: -5.81% |  |
| Cc1ccc(CSCC(=O)N(CCC(C)C)c2c(N)n(Cc3ccccc3)c(=O)[nH]c2=O)cc1 |  | inconclusive: 44.7 µM [inhibitor, partial curve, poor fit] |
| CCN(CC)C(=O)C(=O)c1cn(C)c2ccccc12 |  | inconclusive: 126 µM [inhibitor, partial curve, poor fit] |
| CCCCC(=O)N1CCCC(c2nc3c(nnn3Cc3cc(C)ccc3C)c(=O)[nH]2)C1 (stereo unspecified) |  | inconclusive: 44.7 µM [inhibitor, partial curve, poor fit] |
| CN1CCN([C@@H]2[C@H](O)[C@H](CO)O[C@@H]2CNC(=O)c2ccco2)CC1 |  | inconclusive: 12.6 µM [inhibitor, full curve] |
| CC1(C)CC(=O)C(C(=O)/C=C/NCCc2ccccc2)C(=O)C1 |  | inconclusive: 39.8 µM [inhibitor, single point] |
| COc1cccc(NS(=O)(=O)c2ccc3[nH]cc(C(=O)NCCC(C)C)c(=O)c3c2)c1 | inactive: 13.4% |  |
| O=C1[C@@H]2C[C@@H](O)CN2C2(CN(Cc3ccccc3)C2)C(=O)N1Cc1cccc(Cl)c1 |  | inconclusive: 56.2 µM [inhibitor, partial curve] |
| O=C(Nc1nc(-c2cc3ccccc3oc2=O)cs1)c1ccc([N+](=O)[O-])cc1 |  | inconclusive: 44.7 µM [inhibitor, partial curve, poor fit] |
| OCCNCCSc1ccc(Cl)cc1 |  | inconclusive: 2.51 µM [inhibitor, full curve, poor fit] |
| COc1ccc(Nc2nc(-c3ccc(CN(C)C(C)=O)cc3)cs2)cc1 |  | inconclusive: 44.7 µM [inhibitor, partial curve, poor fit] |
| CCOC(=O)Cn1c(=O)oc2cc(S(=O)(=O)NCCc3ccc(C)cc3)ccc21 |  | inconclusive: 44.7 µM [inhibitor, partial curve] |
| O=C(NCc1ccco1)c1cccc(C(F)(F)F)c1 |  | inconclusive: 89.1 µM [inhibitor, partial curve, poor fit] |
| CC(C)NC(=O)C[C@@H]1O[C@H](CNS(=O)(=O)c2ccccc2)[C@@H](O)[C@H]1O |  | inconclusive: 44.7 µM [inhibitor, full curve] |
| COc1cc(C(=S)N2CCC(C)CC2)ccc1O |  | inconclusive: 158 µM [inhibitor, single point] |
| CC(=O)N(Cc1cc(=O)[nH]c2ccccc12)c1ccc(C)cc1 | inactive: 1.02% |  |
| COC(=O)c1cc(NC/C=C/c2ccccc2)ccc1N1CCOCC1 | inactive: -27.1% |  |

Complete entries from above:
O=C(CN1C(=O)CCSc2ccccc21)Nc1ccccc1 is listed with activity change, negative = inhibition: inactive: 6.11%
Cc1csc(-c2cnn(-c3ccccc3)c2NC(=O)c2ccccc2)n1 is listed with Potency: inconclusive: 50.1 µM [inhibitor, partial curve]

Further results follow.

| Structure (SMILES) | activity change, negative = inhibition | Potency |
| --- | --- | --- |
| O=C1N/C(=C/c2ccco2)C(=O)N1Cc1ccccc1F |  | inconclusive: 56.2 µM [inhibitor, partial curve, poor fit] |
| Cc1nn(C)c(C)c1N1C(=O)c2cccc3c(Br)ccc(c23)C1=O |  | inconclusive: 35.5 µM [inhibitor, partial curve, poor fit] |
| CN1CCN(c2ccc(-c3cccc(NC(=O)COc4ccccc4)c3)nn2)CC1 |  | inconclusive: 56.2 µM [inhibitor, partial curve, poor fit] |
| O=C(NCCc1ccccc1)c1c(F)cccc1F |  | inconclusive: 141 µM [inhibitor, partial curve, poor fit] |
| Cc1ccc(-c2cc(C(=O)Nc3c(C)n(C)n(-c4ccccc4)c3=O)no2)cc1C | inactive: 10.1% |  |
| Cn1ccc2c(-c3ccc(CO)cc3)cc3c(c21)C1CCC3O1 (stereo unspecified) |  | inconclusive: 100 µM [inhibitor, single point] |
| C[C@H](CO)N1C[C@H](C)[C@H](CN(C)C(=O)Nc2ccc3c(c2)OCO3)OCc2cnnn2CCCC1=O |  | inconclusive: 112 µM [inhibitor, partial curve, poor fit] |
| Cc1cccc(C)c1-n1nnnc1SCc1nc2ccsc2c(=O)[nH]1 |  | inconclusive: 50.1 µM [inhibitor, partial curve, poor fit] |
| O=C1OC2C3CC(C2Sc2ccccc2)C(C(=O)O)C13 (stereo unspecified) |  | inconclusive: 6.31 µM [inhibitor, partial curve, poor fit] |
| CCOC(=O)c1cccc(NC(=O)N2CC[C@@H](CC(=O)O)[C@@H](CC)C2)c1 |  | inconclusive: 31.6 µM [inhibitor, full curve] |
| O=C(c1ccco1)N(Cc1cc2ccccc2[nH]c1=O)CC1CCCO1 (stereo unspecified) | inactive: 357% |  |
| COCc1cc(OC)nc(-c2csc(C)n2)n1 |  | inconclusive: 35.5 µM [inhibitor, single point] |
| Cc1ccc2c(c1)CCCN2C(=O)c1cccs1 |  | inconclusive: 35.5 µM [inhibitor, single point] |
| Cc1cc2nc3n(c(=O)c2n1CC(=O)NC1CCCCC1)CCCCC3 |  | inconclusive: 79.4 µM [inhibitor, single point] |
| Cc1ccccc1-n1nc2c(c1NC(=O)c1cc3ccccc3o1)CS(=O)(=O)C2 |  | inconclusive: 50.1 µM [inhibitor, partial curve, poor fit] |
| CCCc1noc(-c2ccn3c(CNC(=O)CCC4CCCC4)nnc3c2)n1 |  | inconclusive: 56.2 µM [inhibitor, partial curve, poor fit] |
| Cc1ccccc1-n1c(SCc2c(C)noc2C)nnc1-c1ccncc1 | inactive: -0.0192% |  |
| COc1ccc(OC)c(N2Cc3cc(C)c(C)cc3C2)c1 |  | inconclusive: 5.62 µM [inhibitor, partial curve, poor fit] |
| Cc1cnc(CNc2ncncc2-c2ccccc2C(F)(F)F)cn1 |  | active: 22.4 µM |
| CCN(CC)S(=O)(=O)c1cccc(NC(=O)CNC2CCCCCC2)c1 |  | inconclusive: 0.1 µM [inhibitor, full curve, poor fit] |
| CCOc1ccc(N(CC(=O)Nc2ccccc2OC)S(C)(=O)=O)cc1 | inactive: 9.48% |  |
| Cc1cc(C)cc(Nc2c(F)c(F)c(F)c(F)c2C(=O)O)c1 |  | inconclusive: 17.8 µM [inhibitor, full curve, poor fit] |
